# According to PubChem BioAssay AID2662 (National Center for Advancing Translational Sciences (NCATS), 2010):
# By UniProt entry, the sequences of proteins in these tests, tags left out.
# UniProt Q03164, whole entry, looked up: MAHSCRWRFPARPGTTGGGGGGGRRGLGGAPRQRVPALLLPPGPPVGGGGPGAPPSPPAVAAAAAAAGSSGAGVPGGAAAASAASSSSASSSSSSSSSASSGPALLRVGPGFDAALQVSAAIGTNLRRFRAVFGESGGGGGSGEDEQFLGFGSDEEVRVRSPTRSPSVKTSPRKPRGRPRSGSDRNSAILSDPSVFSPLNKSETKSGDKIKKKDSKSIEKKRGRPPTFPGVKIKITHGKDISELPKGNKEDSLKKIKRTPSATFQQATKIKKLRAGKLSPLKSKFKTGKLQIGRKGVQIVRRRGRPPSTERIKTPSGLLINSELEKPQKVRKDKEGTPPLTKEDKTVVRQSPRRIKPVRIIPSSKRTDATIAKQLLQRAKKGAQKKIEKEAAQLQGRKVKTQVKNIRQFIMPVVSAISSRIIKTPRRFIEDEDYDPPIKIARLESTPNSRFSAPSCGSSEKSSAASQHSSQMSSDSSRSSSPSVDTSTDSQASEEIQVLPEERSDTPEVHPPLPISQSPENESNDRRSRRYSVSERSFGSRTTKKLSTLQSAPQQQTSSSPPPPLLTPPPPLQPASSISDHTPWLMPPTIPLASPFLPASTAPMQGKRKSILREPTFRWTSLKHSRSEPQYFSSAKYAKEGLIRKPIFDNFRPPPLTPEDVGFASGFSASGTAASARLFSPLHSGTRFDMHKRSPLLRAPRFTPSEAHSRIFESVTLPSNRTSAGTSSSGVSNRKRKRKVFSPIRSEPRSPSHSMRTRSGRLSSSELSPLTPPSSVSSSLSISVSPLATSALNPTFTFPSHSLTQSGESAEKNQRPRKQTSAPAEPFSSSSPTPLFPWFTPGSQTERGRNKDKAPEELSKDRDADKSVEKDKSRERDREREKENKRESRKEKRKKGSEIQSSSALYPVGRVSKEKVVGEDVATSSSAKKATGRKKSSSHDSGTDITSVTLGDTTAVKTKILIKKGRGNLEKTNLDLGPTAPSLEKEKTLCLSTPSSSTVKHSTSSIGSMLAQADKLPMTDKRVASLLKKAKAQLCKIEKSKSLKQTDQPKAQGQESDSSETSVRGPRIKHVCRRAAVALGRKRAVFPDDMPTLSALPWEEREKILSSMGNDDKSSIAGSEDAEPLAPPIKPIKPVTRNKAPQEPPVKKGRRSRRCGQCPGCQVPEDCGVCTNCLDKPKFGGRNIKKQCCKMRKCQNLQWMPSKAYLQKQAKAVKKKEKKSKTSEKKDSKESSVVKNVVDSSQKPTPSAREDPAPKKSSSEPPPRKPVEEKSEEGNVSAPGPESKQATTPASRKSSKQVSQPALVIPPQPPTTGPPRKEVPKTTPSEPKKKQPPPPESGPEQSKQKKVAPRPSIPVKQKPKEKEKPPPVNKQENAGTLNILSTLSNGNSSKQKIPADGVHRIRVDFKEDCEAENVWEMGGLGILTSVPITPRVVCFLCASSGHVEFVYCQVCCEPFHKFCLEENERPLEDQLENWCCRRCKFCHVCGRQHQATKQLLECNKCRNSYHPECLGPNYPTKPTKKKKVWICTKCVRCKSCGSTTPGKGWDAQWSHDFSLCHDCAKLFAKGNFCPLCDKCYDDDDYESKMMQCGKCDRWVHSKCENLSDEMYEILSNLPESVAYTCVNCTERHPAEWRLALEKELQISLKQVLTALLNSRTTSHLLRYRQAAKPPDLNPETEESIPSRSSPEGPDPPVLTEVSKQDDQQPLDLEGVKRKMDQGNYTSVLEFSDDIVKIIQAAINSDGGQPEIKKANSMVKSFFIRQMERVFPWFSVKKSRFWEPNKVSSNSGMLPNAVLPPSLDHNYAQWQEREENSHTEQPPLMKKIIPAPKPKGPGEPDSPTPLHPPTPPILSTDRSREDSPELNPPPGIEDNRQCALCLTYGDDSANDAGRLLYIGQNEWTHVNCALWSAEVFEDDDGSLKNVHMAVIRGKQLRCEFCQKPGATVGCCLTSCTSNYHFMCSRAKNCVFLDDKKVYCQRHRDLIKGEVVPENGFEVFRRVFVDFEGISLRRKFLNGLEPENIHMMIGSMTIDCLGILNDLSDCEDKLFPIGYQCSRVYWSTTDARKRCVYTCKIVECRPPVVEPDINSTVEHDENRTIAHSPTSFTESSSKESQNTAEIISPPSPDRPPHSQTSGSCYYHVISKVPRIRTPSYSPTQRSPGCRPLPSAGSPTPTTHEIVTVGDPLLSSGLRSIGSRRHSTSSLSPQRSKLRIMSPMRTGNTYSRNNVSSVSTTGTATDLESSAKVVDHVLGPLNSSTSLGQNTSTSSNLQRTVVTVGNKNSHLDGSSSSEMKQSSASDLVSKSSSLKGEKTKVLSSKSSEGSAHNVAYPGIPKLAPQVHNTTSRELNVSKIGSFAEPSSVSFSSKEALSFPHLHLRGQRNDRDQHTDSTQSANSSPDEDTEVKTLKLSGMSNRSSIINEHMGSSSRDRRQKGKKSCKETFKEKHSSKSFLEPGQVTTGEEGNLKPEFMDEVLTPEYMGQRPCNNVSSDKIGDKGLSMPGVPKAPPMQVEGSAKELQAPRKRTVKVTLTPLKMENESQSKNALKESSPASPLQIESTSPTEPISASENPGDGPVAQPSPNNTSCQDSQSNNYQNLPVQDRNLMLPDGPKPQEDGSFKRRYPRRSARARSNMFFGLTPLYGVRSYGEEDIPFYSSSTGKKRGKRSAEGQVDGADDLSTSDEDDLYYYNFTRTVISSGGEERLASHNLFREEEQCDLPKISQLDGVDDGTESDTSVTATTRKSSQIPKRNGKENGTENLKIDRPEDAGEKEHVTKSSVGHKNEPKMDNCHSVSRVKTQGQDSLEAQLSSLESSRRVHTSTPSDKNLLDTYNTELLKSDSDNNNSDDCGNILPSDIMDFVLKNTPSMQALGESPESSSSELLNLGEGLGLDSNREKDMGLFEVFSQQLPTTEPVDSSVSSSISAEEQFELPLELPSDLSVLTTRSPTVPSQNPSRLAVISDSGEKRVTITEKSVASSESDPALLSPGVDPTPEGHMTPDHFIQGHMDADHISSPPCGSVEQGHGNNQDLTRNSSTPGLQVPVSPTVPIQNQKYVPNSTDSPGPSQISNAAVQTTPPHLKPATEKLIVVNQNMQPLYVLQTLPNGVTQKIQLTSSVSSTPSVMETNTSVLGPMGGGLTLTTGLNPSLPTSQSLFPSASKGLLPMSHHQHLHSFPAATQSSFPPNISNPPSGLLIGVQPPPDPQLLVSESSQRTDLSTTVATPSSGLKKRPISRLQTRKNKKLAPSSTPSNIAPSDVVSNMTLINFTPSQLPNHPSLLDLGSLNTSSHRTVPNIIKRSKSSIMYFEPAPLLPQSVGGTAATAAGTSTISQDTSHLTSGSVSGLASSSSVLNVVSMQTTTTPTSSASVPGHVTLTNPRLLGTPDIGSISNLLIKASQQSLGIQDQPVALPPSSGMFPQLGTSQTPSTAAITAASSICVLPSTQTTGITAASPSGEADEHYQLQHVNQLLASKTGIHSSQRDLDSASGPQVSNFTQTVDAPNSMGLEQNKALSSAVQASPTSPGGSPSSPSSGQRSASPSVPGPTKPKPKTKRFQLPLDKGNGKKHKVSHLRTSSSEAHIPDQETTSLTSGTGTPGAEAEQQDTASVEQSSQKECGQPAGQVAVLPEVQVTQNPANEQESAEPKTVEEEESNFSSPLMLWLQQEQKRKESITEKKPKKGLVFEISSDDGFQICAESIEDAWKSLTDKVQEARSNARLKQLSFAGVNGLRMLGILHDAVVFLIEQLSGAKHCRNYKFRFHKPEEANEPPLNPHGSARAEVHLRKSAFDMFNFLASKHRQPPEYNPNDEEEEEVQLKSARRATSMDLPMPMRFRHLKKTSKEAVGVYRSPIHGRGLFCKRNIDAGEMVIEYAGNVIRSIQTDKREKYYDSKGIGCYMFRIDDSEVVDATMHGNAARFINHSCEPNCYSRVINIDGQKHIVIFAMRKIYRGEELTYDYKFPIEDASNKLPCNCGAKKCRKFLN
# Where “and” joins values, the source holds several entries; their conditions need not be identical. Equal entries are not always repeated. Screen size: about 290,000 compounds; about 110 (0.038%) were called active. Inconclusive results, whose numbers are uncertain, are shown with a selection of clear calls. Calls come from the whole dose curve; as a rule, active = well fitted inhibition curve with a large enough effect in the polarisation, with a control signal flat (not every such curve was filed as active); inconclusive = small, poorly fitted or top-dose-only effect, or effect the other way, or a change in a side signal; inactive = no such curve, though single readings can be large or run the other way; the % refers to the polarisation. Potencies of inconclusive entries are doubtful fits and often do not repeat. “Side channel” marks fits to a control or component signal instead of the main read-out.
# Target: Histone-lysine N-methyltransferase 2A (Homo sapiens) (UniProt Q03164)
# Experiment: qHTS Fluorescence Polarization Assay for Inhibitors of MLL CXXC domain - DNA interaction
# Conditions: MLL-CXXC / FITC-HOXA9 DNA fluorescence polarization; activity change, negative = inhibition: at 115 µM (top of the series)
# Method in brief: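 Fluorescence polarization: 7 uM MLL-CXXC (stock) preincubated 5 min with compounds, then 50 nM fluorescein-HOX-A9 DNA (stock) added; 30 min ambient. Buffer 50 mM Tris-HCl pH 7.5, 50 mM NaCl, 1 mM DTT, 0.05% BSA.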
# Potency is the fitted concentration of half-maximal effect.
SMILES,"activity change, negative = inhibition",Potency
N#C/C(=C\c1ccc(N2CCOCC2)o1)c1ccccc1,inactive: 45.3%,
CN1CCC2(CC1)C1CN(C)CC=C1C(C#N)=C(N)C2(C#N)C#N (stereo not drawn),,"inconclusive: 39.8 µM [fluorescent, side channel, single point] and inconclusive: 31.6 µM [fluorescent, side channel, partial curve]"
COC(=O)c1ccccc1-c1ccc(/C=N/NC(=O)c2cc3ccccc3o2)o1,inactive: -0.456%,
O=C(NC1CCCCC1)NC1C2CC3CC(C2)CC1C3 (stereo not drawn),,"inconclusive: 14.1 µM [fluorescent, side channel, single point]"
O=C(O)c1ccc2c(c1)C(=O)/C(=C/c1ccccc1)C2=O,inactive: 8.53%,
Cc1noc(C)c1CSc1nnc2ccccn12,,"inconclusive: 7.08 µM [fluorescent, side channel, full curve, poor fit]"
C=C[C@@]1(C)CC(=O)[C@]2(O)[C@@]3(C)[C@@H](O)CCC(C)(C)[C@@H]3[C@H](O)[C@H](OC(C)=O)[C@@]2(C)O1,,"inconclusive: 10 µM [fluorescent, side channel, full curve, poor fit]"
Cc1cc2nc3ccc(=[N+](C)C)cc-3sc2cc1N,,"inconclusive: 6.31 µM [quencher, side channel, full curve]"
COc1ccccc1-[n+]1c(C)cc(/C=C2\Sc3ccccc3N2C)cc1C,,"inconclusive: 39.8 µM [fluorescent, side channel, partial curve]"
Cc1ccc(S(=O)(=O)c2cc3c(=O)n4cccc(C)c4nc3n(C3CCCCC3)c2=N)cc1,,"inconclusive: 39.8 µM [fluorescent, side channel, partial curve]"
Cc1nnc(NC(=O)c2nc(S(=O)(=O)Cc3ccccc3)ncc2Cl)s1,,"inconclusive: 35.5 µM [inhibitor, single point]"
O=C(Cn1nc(Br)nc1Br)c1ccccc1,,"inconclusive: 10 µM [inhibitor, single point]"
Cc1nn2c(NCc3ccccn3)c3c(nc2c1-c1ccccc1)CCC3,inactive: -7.88%,
Cc1ncc(/C=C2\C(=O)Nc3ccccc32)[nH]1,,"inconclusive: 70.8 µM [fluorescent, side channel, single point]"
Cc1ccc2[nH]c3nc(N/N=C/c4cccc(O)c4)nnc3c2c1,,"inconclusive: 39.8 µM [quencher, side channel, single point]"
COc1ccc(CN2CCCC(C(=O)c3cccc(OC(C)C)c3)C2)cc1Cn1cccn1 (stereo not drawn),,"inconclusive: 15.8 µM [inhibitor, partial curve]"
Cc1ccc(N/N=C(\C#N)C(=N)N2CCCCCC2)cc1,,"inconclusive: 70.8 µM [fluorescent, side channel, single point]"
Cc1cc(C(=O)N/N=C/c2cc(Br)ccc2OC(=O)c2ccccc2)n[nH]1,,"inconclusive: 14.1 µM [fluorescent, side channel, partial curve]"
CC(=O)Nc1ccc(NC(=O)CCCSc2nc3ccccc3[nH]2)cc1,,"inconclusive: 89.1 µM [inhibitor, single point]"
O=C(O)C(Cc1ccccc1)N1C(=O)/C(=C/c2cccc3ccccc23)SC1=S (stereo not drawn),,"inconclusive: 28.2 µM [inhibitor, partial curve]"

# 4 entries from above, with bars between the fields.
SMILES | activity change, negative = inhibition | Potency
O=C(O)c1ccc2c(c1)C(=O)/C(=C/c1ccccc1)C2=O | inactive: 8.53% | 
Cc1noc(C)c1CSc1nnc2ccccn12 |  | inconclusive: 7.08 µM [fluorescent, side channel, full curve, poor fit]
C=C[C@@]1(C)CC(=O)[C@]2(O)[C@@]3(C)[C@@H](O)CCC(C)(C)[C@@H]3[C@H](O)[C@H](OC(C)=O)[C@@]2(C)O1 |  | inconclusive: 10 µM [fluorescent, side channel, full curve, poor fit]
Cc1cc2nc3ccc(=[N+](C)C)cc-3sc2cc1N |  | inconclusive: 6.31 µM [quencher, side channel, full curve]

# Further results

SMILES,"activity change, negative = inhibition",Potency
Cc1c(Br)c([N+](=O)[O-])nn1C(C)C(=O)Nc1c(C)n(C)n(-c2ccccc2)c1=O (stereo not drawn),,"inconclusive: 31.6 µM [inhibitor, single point]"
CN(C)c1ccc(/C=C/c2ccc3c4ccccc4ccc3[n+]2-c2ccccc2)cc1,,"inconclusive: 31.6 µM [quencher, side channel, partial curve]"
COc1cc(/C=N/NC(=O)c2ccc(O)cc2)ccc1Oc1ccc([N+](=O)[O-])cn1,,"inconclusive: 63.1 µM [quencher, side channel, single point]"
Cc1ccccc1NC(=O)CC1C(=O)NCCN1C(=O)c1cccc(Cl)c1 (stereo not drawn),,"inconclusive: 14.1 µM [fluorescent, side channel, single point]"
CC1CCC2(CC1)NC(=O)N(CC(=O)c1ccc[nH]1)C2=O (stereo not drawn),inactive: -4.2%,
O=C(O)/C=C/C(=O)c1ccc(O)cc1,,"inconclusive: 63.1 µM [inhibitor, single point]"
Cc1ccc(/C=c2\sc3nc(-c4cccnc4)nn3c2=O)cc1,,"inconclusive: 11.2 µM [inhibitor, full curve]"
Clc1ccc2nc(-c3ccccn3)c(Nc3ccc4c(c3)OCO4)n2c1,,"inconclusive: 70.8 µM [quencher, side channel, single point]"
CN1/C(=C\C=C2/C(=O)Oc3ccccc3C2=O)C(C)(C)c2ccccc21,,"inconclusive: 6.31 µM [fluorescent, side channel, full curve]"
O=C(Nc1cccc([N+](=O)[O-])c1)C12CC3CC(C1)CC(n1cnc([N+](=O)[O-])n1)(C3)C2,,"inconclusive: 89.1 µM [fluorescent, side channel, single point]"
CCOC(=O)Nc1sc(C)c(C)c1C(N)=O,,"inconclusive: 63.1 µM [inhibitor, single point]"
Cc1cccn2c(=O)c3cc(C(=O)O)n(C)c3nc12,inactive: 11.4%,
COc1cc(OC)c(NS(=O)(=O)c2cccc(C(=O)OCC(=O)NCC3CCCO3)c2)cc1Cl (stereo not drawn),inactive: -8.7%,
COc1cccc(N=Nc2ccc3ccccc3c2O)c1,,"inconclusive: 35.5 µM [inhibitor, partial curve]"
C=CCn1c(C)c(/C=C/c2cc[n+](C)cc2)c2ccccc21,,"inconclusive: 31.6 µM [fluorescent, side channel, partial curve]"
Cc1ccn2c(Nc3ccccc3C)c(-c3ccccn3)nc2c1,,"inconclusive: 25.1 µM [quencher, side channel, partial curve]"
CCOC(=O)N1CCN(Cc2nnc(-c3ccccc3Cl)o2)CC1,,"inconclusive: 70.8 µM [fluorescent, side channel, single point]"
Cc1ccc(NC(=O)Cn2c(=O)c(C)nc3ccccc32)cc1,,"inconclusive: 28.2 µM [fluorescent, side channel, partial curve]"
O=C(O)c1ccc(C2CCCCC2)cn1,,"inconclusive: 31.6 µM [inhibitor, single point]"

SMILES,"activity change, negative = inhibition",Potency
CC(=O)N1N=C(c2ccc(C)cc2)CC1c1ccco1 (stereo not drawn),inactive: 6.12%,
Cc1ccc(/C=C(\C#N)C(=O)Nc2cccc(C)n2)cc1,,"inconclusive: 7.94 µM [fluorescent, side channel, single point]"
C=CCNC(=S)N(CC)c1cccc2ccccc12,,"inconclusive: 31.6 µM [fluorescent, side channel, single point]"
c1nc(N2CCNCC2)c2sc3nc(N4CCOCC4)c4c(c3c2n1)CCC4,,"inconclusive: 39.8 µM [quencher, side channel, single point]"
O=C(Nc1cccc(Cl)c1N1CCCC1)c1ccco1,inactive: 2.39%,
CCOC(=O)c1cc(-c2ccccc2)sc1NC(=O)CSc1nnc(N)s1,,"inconclusive: 63.1 µM [fluorescent, side channel, single point]"
Cc1ccc(N=C2NC(=O)/C(=C/c3cn(C)c4ccccc34)S2)cc1C,,"inconclusive: 31.6 µM [fluorescent, side channel, partial curve]"
O=C(Cc1c(Cl)cccc1Cl)NC1CC1,,"inconclusive: 89.1 µM [fluorescent, side channel, single point]"
COC(=O)[C@@H]1C[C@H]2CC[C@H](O)C[C@H]2N1Cc1ccc(-c2ccccc2)cc1,,"inconclusive: 5.62 µM [fluorescent, side channel, partial curve]"
CNC(=O)c1cc(S(=O)(=O)N2CC(C)OC(C)C2)ccc1N1CCOCC1 (stereo not drawn),inactive: -16.5%,
COc1ccc(-c2csc(N(CCCN(C)C)C(=O)c3ccc(Br)cc3)n2)cc1,,"inconclusive: 28.2 µM [quencher, side channel, partial curve]"
CCc1ccccc1NC(=O)NCc1ccc2c(c1)OCO2,,"inconclusive: 15.8 µM [quencher, side channel, single point]"
CC(=O)N(C(C)=O)N1C(=O)/C(=C/c2ccc(Cl)cc2)SC1=S,,"inconclusive: 35.5 µM [inhibitor, single point]"
COc1ccc(CN(C)C(=O)c2sccc2-c2ccccc2)c(OC)c1,,"inconclusive: 12.6 µM [fluorescent, side channel, single point]"
Cc1ccc(N2N=C(C(=O)O)CCC2=O)cc1Cl,,"inconclusive: 70.8 µM [fluorescent, side channel, single point]"
COc1ccc(NC(=O)/C=C/c2cccc(F)c2)cn1,,"inconclusive: 31.6 µM [inhibitor, single point]"
O=C(Nc1ccc(Cl)cc1)c1cccc(N2C(=O)C3C4CCC(C4)C3C2=O)c1 (stereo not drawn),inactive: 10.5%,
Cc1ccccc1-c1nc(C#N)c(N2CCC(C)CC2)o1,,"inconclusive: 10 µM [inhibitor, single point]"
